PMC9664729
These are yes or no findings as the source states them, for the method shown. Binding seen in cells or lysates may run through a third protein. Some binding calls cover weakened binding; strength is not graded here. Tags and fused reporters may be left off the sequences shown.

Chains of the proteins cited; added tags and fusions are not shown.
UniProt P19474: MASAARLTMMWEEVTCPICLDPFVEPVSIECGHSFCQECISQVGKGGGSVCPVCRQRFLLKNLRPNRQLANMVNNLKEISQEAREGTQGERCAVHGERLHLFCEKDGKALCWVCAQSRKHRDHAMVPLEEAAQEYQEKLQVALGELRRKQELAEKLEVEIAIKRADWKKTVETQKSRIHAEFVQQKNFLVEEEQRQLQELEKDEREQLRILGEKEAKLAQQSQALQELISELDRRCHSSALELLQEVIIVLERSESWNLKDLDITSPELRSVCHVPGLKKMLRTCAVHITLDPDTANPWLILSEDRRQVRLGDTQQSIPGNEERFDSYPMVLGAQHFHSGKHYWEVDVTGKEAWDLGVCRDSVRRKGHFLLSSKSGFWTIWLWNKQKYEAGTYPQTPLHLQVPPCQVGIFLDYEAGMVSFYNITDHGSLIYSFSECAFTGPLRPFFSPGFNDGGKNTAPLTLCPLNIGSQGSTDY

Tests used:
[1] = target: T1, Elongin A (ELOA), Flag-tagged (UniProt Q14241); assay: co-IP; indicated plasmids transfected into HCT116 cells, lysed in IP buffer with protease inhibitors, supernatants incubated with beads overnight at 4 °C, washed three times, immunoblotting; also with DLGAP1-AS2 knockdown or ectopic expression
T1 sequence: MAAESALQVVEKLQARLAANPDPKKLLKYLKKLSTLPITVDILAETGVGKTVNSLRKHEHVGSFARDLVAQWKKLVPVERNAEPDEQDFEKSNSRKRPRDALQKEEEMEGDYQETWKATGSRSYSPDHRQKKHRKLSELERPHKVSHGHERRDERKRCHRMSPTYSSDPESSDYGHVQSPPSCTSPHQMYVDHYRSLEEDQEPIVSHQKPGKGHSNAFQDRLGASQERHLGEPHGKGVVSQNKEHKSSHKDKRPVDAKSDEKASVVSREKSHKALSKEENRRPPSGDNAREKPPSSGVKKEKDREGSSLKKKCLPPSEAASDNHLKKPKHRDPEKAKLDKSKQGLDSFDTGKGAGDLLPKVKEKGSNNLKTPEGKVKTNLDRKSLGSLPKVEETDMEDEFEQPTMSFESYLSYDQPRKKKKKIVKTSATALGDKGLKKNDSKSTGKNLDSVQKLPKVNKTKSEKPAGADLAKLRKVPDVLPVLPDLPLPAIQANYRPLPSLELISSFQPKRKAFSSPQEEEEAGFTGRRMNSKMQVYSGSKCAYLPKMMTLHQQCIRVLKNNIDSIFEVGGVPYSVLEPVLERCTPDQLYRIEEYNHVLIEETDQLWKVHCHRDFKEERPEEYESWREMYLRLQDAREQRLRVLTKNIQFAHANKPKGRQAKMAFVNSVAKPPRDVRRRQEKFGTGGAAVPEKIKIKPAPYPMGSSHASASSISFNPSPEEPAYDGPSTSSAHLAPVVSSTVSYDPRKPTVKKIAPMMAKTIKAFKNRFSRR

[2] = target: T2, cleavage stimulation factor (CSTF3), HA-tagged (UniProt Q12996); assay: as above
T2 sequence: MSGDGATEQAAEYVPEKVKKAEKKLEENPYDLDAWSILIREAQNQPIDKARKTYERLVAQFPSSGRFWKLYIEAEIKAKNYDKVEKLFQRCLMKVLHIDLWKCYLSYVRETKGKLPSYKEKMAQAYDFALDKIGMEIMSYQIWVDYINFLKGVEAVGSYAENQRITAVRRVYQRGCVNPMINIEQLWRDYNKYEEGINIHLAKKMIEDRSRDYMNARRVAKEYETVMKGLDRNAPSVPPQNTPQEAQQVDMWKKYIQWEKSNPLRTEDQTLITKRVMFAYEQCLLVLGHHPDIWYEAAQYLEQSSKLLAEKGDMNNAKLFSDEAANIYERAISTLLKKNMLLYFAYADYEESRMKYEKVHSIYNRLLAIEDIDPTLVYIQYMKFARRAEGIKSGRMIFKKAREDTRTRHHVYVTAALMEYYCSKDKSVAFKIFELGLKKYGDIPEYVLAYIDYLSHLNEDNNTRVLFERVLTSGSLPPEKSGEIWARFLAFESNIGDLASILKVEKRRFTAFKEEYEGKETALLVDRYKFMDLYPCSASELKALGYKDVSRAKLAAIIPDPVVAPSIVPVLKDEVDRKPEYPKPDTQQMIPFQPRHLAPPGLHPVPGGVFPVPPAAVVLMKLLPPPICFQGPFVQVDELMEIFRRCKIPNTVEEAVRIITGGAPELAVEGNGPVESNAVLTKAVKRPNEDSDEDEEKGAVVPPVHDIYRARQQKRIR

Molecule | binding [1] | binding [2]
tripartite motif containing 21 (Trim21), Myc-tagged (from UniProt P19474 1-475) | binds | –
cleavage and polyadenylation specificity factor (CPSF2), Flag-tagged (protein, UniProt Q9P2I0 1-782) MTSIIKLTTLSGVQEESALCYLLQVDEFRFLLDCGWDEHFSMDIIDSLRKHVHQIDAVLLSHPDPLHLGALPYAVGKLGLNCAIYATIPVYKMGQMFMYDLYQSRHNTEDFTLFTLDDVDAAFDKIQQLKFSQIVNLKGKGHGLSITPLPAGHMIGGTIWKIVKDGEEEIVYAVDFNHKREIHLNGCSLEMLSRPSLLITDSFNATYVQPRRKQRDEQLLTNVLETLRGDGNVLIAVDTAGRVLELAQLLDQIWRTKDAGLGVYSLALLNNVSYNVVEFSKSQVEWMSDKLMRCFEDKRNNPFQFRHLSLCHGLSDLARVPSPKVVLASQPDLECGFSRDLFIQWCQDPKNSIILTYRTTPGTLARFLIDNPSEKITEIELRKRVKLEGKELEEYLEKEKLKKEAAKKLEQSKEADIDSSDESDIEEDIDQPSAHKTKHDLMMKGEGSRKGSFFKQAKKSYPMFPAPEERIKWDEYGEIIKPEDFLVPELQATEEEKSKLESGLTNGDEPMDQDLSDVPTKCISTTESIEIKARVTYIDYEGRSDGDSIKKIINQMKPRQLIIVHGPPEASQDLAECCRAFGGKDIKVYMPKLHETVDATSETHIYQVRLKDSLVSSLQFCKAKDAELAWIDGVLDMRVSKVDTGVILEEGELKDDGEDSEMQVEAPSDSSVIAQQKAMKSLFGDDEKETGEESEIIPTLEPLPPHEVPGHQSVFMNEPRLSDFKQVLLREGIQAEFVGGVLVCNNQVAVRRTETGRIGLEGCLCQDFYRIRDLLYEQYAIV | – | binds
